# PubChem BioAssay AID1259308, NCATS, 2017
# Purpose: 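Candidate targets for better recombinant protein yield in mammalian cells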 (primary screen)
# System: human HEK293 embryonic kidney cells stably expressing firefly luciferase (HEK-CMV-Luc2-Hygro)
# Knock-down reagent: single siRNA against human genes, 0.8 pmol siRNA per well
# Time to read-out: 72 h
# Detection: 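Luciferase light (ONE-Glo) measured on one replicate plate set and viability (CellTiter-Glo) on the other, scaled to a negative control siRNA, with robust z-scores and luciferase per cell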
# Scale: total luciferase, z-score and total luciferase, % of control: higher = more reporter protein produced; luciferase per cell, z-score: higher = more reporter output per viable cell
# Hit rule: 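An siRNA counts as active if its total luciferase robust z-score exceeds 3; genes with two or more such siRNAs out of three were retested with fresh siRNAs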
# Calls: active = raised luciferase; inactive = no rise
# Shown is an unselected part of about 59,000 reagents. About 1,510 of them (2.6%) were called active. 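Calls use total luciferase alone and ignore viability, so some active siRNAs may act by altering cell number.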 The numbers tell different reagents against one gene apart. Not all columns of the deposit are shown.
gene,reagent,"total luciferase, z-score","total luciferase, % of control","luciferase per cell, z-score",Outcome
CDC42BPG,1,-1.8,46.1,-1.55,inactive
CDC42BPG,2,1.87,119,1.77,inactive
CDC42BPG,3,2,122,1.62,inactive
PLCB1,1,-0.623,69.5,-0.86,inactive
PLCB1,2,-0.0749,80.4,0.665,inactive
PLCB1,3,-0.0423,81,-0.299,inactive
PTH,1,-0.915,63.7,-1.52,inactive
PTH,2,0.162,85.1,-0.844,inactive
PTH,3,0.293,87.7,0.0869,inactive
ATP6V0A1,1,0.75,96.8,-0.189,inactive
ATP6V0A1,2,-0.111,79.7,0.122,inactive
ATP6V0A1,3,0.282,87.5,-0.104,inactive
CNTNAP5,1,1.12,104,0.84,inactive
CNTNAP5,2,-0.522,71.5,-0.467,inactive
CNTNAP5,3,1.62,114,0.724,inactive
PHGR1,1,-0.725,67.5,-0.577,inactive
PHGR1,2,0.813,98.1,1.66,inactive
PHGR1,3,0.733,96.5,0.251,inactive
SRRT,1,-0.721,67.6,0.406,inactive
SRRT,2,-0.145,79,0.457,inactive
SRRT,3,1.61,114,1.27,inactive
SP140,1,-0.503,71.9,-0.515,inactive
SP140,2,-2.06,40.8,-1.01,inactive
SP140,3,0.582,93.5,-0.753,inactive
MYO15A,1,2.12,124,1.57,inactive
MYO15A,2,0.109,84.1,-0.4,inactive
MYO15A,3,-0.407,73.8,-0.94,inactive
SACM1L,1,-0.44,73.1,-0.612,inactive
SACM1L,2,0.776,97.3,0.518,inactive
SACM1L,3,-0.725,67.5,-0.663,inactive

Already shown: an excerpt of the list.
gene,reagent,"total luciferase, z-score","total luciferase, % of control","luciferase per cell, z-score",Outcome
PHGR1,3,0.733,96.5,0.251,inactive
SRRT,1,-0.721,67.6,0.406,inactive
SRRT,2,-0.145,79,0.457,inactive
SRRT,3,1.61,114,1.27,inactive
SP140,1,-0.503,71.9,-0.515,inactive
SP140,2,-2.06,40.8,-1.01,inactive
SP140,3,0.582,93.5,-0.753,inactive
MYO15A,1,2.12,124,1.57,inactive

Additional reagents follow.
gene,reagent,"total luciferase, z-score","total luciferase, % of control","luciferase per cell, z-score",Outcome
OIP5,1,-1.38,54.5,-1.86,inactive
OIP5,2,0.354,88.9,-0.149,inactive
OIP5,3,-0.956,62.9,-0.956,inactive
TTC21A,1,-0.146,79,-0.427,inactive
TTC21A,2,0.194,85.7,-0.107,inactive
TTC21A,3,-0.0446,81,-0.361,inactive
TMED9,1,-1.36,54.8,-0.749,inactive
TMED9,2,-0.0343,81.2,-0.224,inactive
TMED9,3,2.36,129,1.56,inactive
GJC1,1,-1.62,49.7,-1.18,inactive
GJC1,2,-0.475,72.4,-0.0989,inactive
GJC1,3,-0.35,74.9,-0.349,inactive
MCEMP1,1,0.045,82.8,0.0383,inactive
MCEMP1,2,2.89,139,2.13,inactive
MCEMP1,3,-0.231,77.3,-0.46,inactive
CHST3,1,0.307,88,0.269,inactive
CHST3,2,-0.25,76.9,-0.153,inactive
CHST3,3,-0.409,73.8,-0.404,inactive
ENDOU,1,0.372,89.3,0.917,inactive
ENDOU,2,-0.844,65.1,-1.36,inactive
ENDOU,3,-0.579,70.4,-0.45,inactive
KBTBD13,1,-0.329,75.3,0.477,inactive
KBTBD13,2,0.814,98.1,0.806,inactive
KBTBD13,3,-1.38,54.4,-1.39,inactive
H3-3B,1,0.287,87.6,0.371,inactive
H3-3B,2,-0.0795,80.3,0.108,inactive
H3-3B,3,-0.642,69.1,-0.28,inactive
ERBB2,1,-1.61,49.8,-0.491,inactive
ERBB2,2,-0.267,76.6,-0.59,inactive
ERBB2,3,0.176,85.4,0.0401,inactive
H4C4,1,-0.92,63.6,1.56,inactive
H4C4,2,0.34,88.6,1.08,inactive
H4C4,3,-0.119,79.5,-0.0933,inactive
RC3H1,1,3.19,145,2.77,active
RC3H1,2,-0.0431,81,-0.174,inactive
RC3H1,3,-1.05,61,-1.33,inactive
C1orf162,1,0.086,83.6,-0.0959,inactive
C1orf162,2,3.76,157,3.21,active
C1orf162,3,-0.726,67.5,-0.148,inactive
ARB2A,1,-1.01,61.8,-1.08,inactive
ARB2A,2,0.753,96.9,0.856,inactive
ARB2A,3,-0.109,79.7,-0.433,inactive
GNA11,1,1.16,105,1.14,inactive
GNA11,2,-2.81,26,-2.66,inactive
GNA11,3,-1.23,57.4,0.0225,inactive
